PubChem BioAssay AID1224828, NIAID | 2016
Test: 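Knock-downs that increase or decrease LPS-induced p65 nuclear translocation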 (primary screen). System: mouse RAW264.7 G9 macrophage reporter cells (GFP-p65, Tnf promoter-mCherry). Knock-down reagent: siRNA pool against mouse genes, 100 nM. Time to read-out: 2 days siRNA transfection, then 40 min LPS before fixation. Conditions: LPS (Salmonella minnesota R595) at 10 ng/ml. Read-out: 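Microscopy ratio of nuclear to perinuclear-ring GFP-p65 signal, scaled to the plate median; gene score is the average of two replicate robust z-scores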. Direction: p65 translocation robust z-score: higher = more nuclear NF-kappaB p65 after LPS than the plate median; nuclear/cytoplasmic p65 ratio: higher = more nuclear NF-kappaB p65. Active means: 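Called active when z exceeds 3.3 or falls under -1.56 (median of Tlr4 controls), giving activity score of at least 50; no calls for control wells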. Calls: active = hit (p65 shift raised or lowered); inactive = no clear change.
Shown is a random part of about 17,000 deposited reagents. 762 of them (4.5%) count as active. 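Active calls include both raised and lowered p65 entry, mostly lowered; wells with fewer than 50 cells lack a z-score.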 Raw values vary from plate to plate and are shown uncorrected. A number with no mark means an inactive call.

For Lyn (Lyn proto-oncogene, Src family tyrosine kinase), the values are p65 translocation robust z-score -1.11; nuclear/cytoplasmic p65 ratio, rep 1 = 2; nuclear/cytoplasmic p65 ratio, rep 2 = 1.24; low cell count flag enough cells to score.
Dnaaf6 (dynein axonemal assembly factor 6) showed p65 translocation robust z-score -0.48; nuclear/cytoplasmic p65 ratio, rep 1 = 1.43; nuclear/cytoplasmic p65 ratio, rep 2 = 1.28; low cell count flag enough cells to score.
After knock-down of Bcl2a1c (B cell leukemia/lymphoma 2 related protein A1c), the screen gave nuclear/cytoplasmic p65 ratio, rep 1 = 1.43; nuclear/cytoplasmic p65 ratio, rep 2 = 1.48; low cell count flag fewer than 50 cells per well; well left out of scoring.
For Usp42 (ubiquitin specific peptidase 42), the entry reads p65 translocation robust z-score 0.79; nuclear/cytoplasmic p65 ratio, rep 1 = 1.79; nuclear/cytoplasmic p65 ratio, rep 2 = 1.67; low cell count flag enough cells to score.
Depletion of Tie1 gave: p65 translocation robust z-score -1.61 (active); nuclear/cytoplasmic p65 ratio, rep 1 = 1.53; nuclear/cytoplasmic p65 ratio, rep 2 = 1.18; low cell count flag enough cells to score.
Knock-down of Or1j11 (olfactory receptor family 1 subfamily J member 11) resulted in: p65 translocation robust z-score -1.29; nuclear/cytoplasmic p65 ratio, rep 1 = 1.41; nuclear/cytoplasmic p65 ratio, rep 2 = 1.11; low cell count flag enough cells to score.
Samsn1 (SAM domain, SH3 domain and nuclear localization signals, 1) gave nuclear/cytoplasmic p65 ratio, rep 1 = 1.4; nuclear/cytoplasmic p65 ratio, rep 2 = 1.55; low cell count flag fewer than 50 cells per well; well left out of scoring.
With knock-down of Rnf220 (ring finger protein 220) the results were p65 translocation robust z-score -1.24; nuclear/cytoplasmic p65 ratio, rep 1 = 1.12; nuclear/cytoplasmic p65 ratio, rep 2 = 1.08; low cell count flag enough cells to score.

2 consecutive records from above, for reference:
Lyn (Lyn proto-oncogene, Src family tyrosine kinase) | p65 translocation robust z-score: -1.11; nuclear/cytoplasmic p65 ratio, rep 1: 2; nuclear/cytoplasmic p65 ratio, rep 2: 1.24; low cell count flag: enough cells to score
Dnaaf6 (dynein axonemal assembly factor 6) | p65 translocation robust z-score: -0.48; nuclear/cytoplasmic p65 ratio, rep 1: 1.43; nuclear/cytoplasmic p65 ratio, rep 2: 1.28; low cell count flag: enough cells to score

Further results follow.
Knock-down of Gm4793 (predicted gene 4793) gave: p65 translocation robust z-score -1.45; nuclear/cytoplasmic p65 ratio, rep 1 = 1.5; nuclear/cytoplasmic p65 ratio, rep 2 = 1.32; low cell count flag enough cells to score.
Silencing of Spsb2 (splA/ryanodine receptor domain and SOCS box containing 2) came out at: p65 translocation robust z-score -2.18 (active); nuclear/cytoplasmic p65 ratio, rep 1 = 1.28; nuclear/cytoplasmic p65 ratio, rep 2 = 1.25; low cell count flag enough cells to score.
Faim (Fas apoptotic inhibitory molecule) gave p65 translocation robust z-score 0.18; nuclear/cytoplasmic p65 ratio, rep 1 = 1.48; nuclear/cytoplasmic p65 ratio, rep 2 = 1.4; low cell count flag enough cells to score.
For Vwa3a (von Willebrand factor A domain containing 3A) the deposit lists nuclear/cytoplasmic p65 ratio, rep 1 = 1.55; nuclear/cytoplasmic p65 ratio, rep 2 = 1.69; low cell count flag fewer than 50 cells per well; well left out of scoring.
Silencing of Ppargc1b resulted in: p65 translocation robust z-score 0.46; nuclear/cytoplasmic p65 ratio, rep 1 = 1.62; nuclear/cytoplasmic p65 ratio, rep 2 = 1.41; low cell count flag enough cells to score.
For Slc35b3 the deposit lists nuclear/cytoplasmic p65 ratio, rep 1 = 0; nuclear/cytoplasmic p65 ratio, rep 2 = 1.03; low cell count flag fewer than 50 cells per well; well left out of scoring.
